The values below come from patent US7964369.

In the experiment the target is Ras-GRF1-Myc. Description: co-immunoprecipitation from 293 cells co-transfected with GRAIL, USP8 and Ras-GRF1.

Results are given in words; binding and its absence hold for the method and conditions named. In cells and extracts the contact can be indirect. Binding calls can cover weak binding; strength is not graded here. Where a sequence is shown, tags or fusion partners need not be part of it.

B1: HA-USP8 (enzyme, mouse, UniProt Q80U87 1-1080, looked up, not shown: small tags and cut ends)
chain: MPAVASVPKELYLSSSLKDLNKKTEVKPEKTSTKNYIHSAQKIFKTAEECRLDRDEERAYVLYMKYVAVYNLIKKRPDFKQQQDYYLSILGPANIKKAIEEAERLSESLKLRYEEAEVRKQLEEKDRREEEQLQQQKRQEMGREDSGAAAKRSVENLLDSKTKTQRINGEKSEGAAAAERGAITAKELYTMMMDKNTSLIIMDARKIQDYQHSCILDSLSVPEEAISPGVTASWIEANLSDDSKDTWKKRGSVDYVVLLDWFSSAKDLLLGTTLRSLKDALFKWESKTVLRHEPLVLEGGYENWLLCYPQFTTNAKVTPPPRSRAEEVSVSLDFTYPSLEEPVPSKLPTQMPPPPIETNEKALLVTDQDEKLRLSTQPALAGPGAAPRAEASPIIQPAPATKSVPQVDRTKKPSVKLPEDHRIKSENTDQSGRVLSDRSTKPVFPSPTTMLTDEEKARIHQETALLMEKNKQEKELWDKQQKEQKEKLRREEQERKAGKTQDADERDSTENQHKAKDGQEKKDSKQTKTEDRELSADGAQEATGTQRQSKSEHEASDAKVPVEGKRCPTSEAQKRPADVSPASVSGELNAGKAQREPLTRARSEEMGRIVPGLPLGWAKFLDPITGTFRYYHSPTNTVHMYPPEMAPSSAPPSTPPTHKVKPQVPAERDREPSKLKRSYSSPDITQALQEEEKRRPAVTPMVNRENKPPCYPKAEISRLSASQIRNLNPVFGGSGPALTGLRNLGNTCYMNSILQCLCNAPHLADYFNRNCYQDDINRSNLLGHKGEVAEEFGIIMKALWTGQYRYISPKDFKVTIGKINDQFAGSSQQDSQELLLFLMDGLHEDLNKADNRKRHKEENNEHLDDLQAAEHAWQKHKQLNESIIVALFQGQFKSTVQCLTCRRRSRTFEAFMYLSLPLASTSKCTLQDCLRLFSKEEKLTDNNRFYCSHCRARRDSLKKIEIWKLPPVLLVHLKRFSYDGRWKQKLQTSVDFPLENLDLSQYVIGPKNSLKKYNLFSVSNHYGGLDGGHYTAYCKNAARQRWFKFDDHEVSDISVSSVRSSAAYILFYTSLGPRITDVAT
In the case of B1, the binding result is listed as “binds”.
